In patent US20110189209A1 (GOVERNMENT OF THE UNITED STATES OF AMERICA AS REPRESENTED …, published 2011):
These are yes or no findings as the source states them, for the method shown. Some entries that bind do so weakly or less than the wild type.

Amino acid sequences for entries named in this document (tags omitted). Residues count along the entry.
UniProt Q95LI5, residues 22-198: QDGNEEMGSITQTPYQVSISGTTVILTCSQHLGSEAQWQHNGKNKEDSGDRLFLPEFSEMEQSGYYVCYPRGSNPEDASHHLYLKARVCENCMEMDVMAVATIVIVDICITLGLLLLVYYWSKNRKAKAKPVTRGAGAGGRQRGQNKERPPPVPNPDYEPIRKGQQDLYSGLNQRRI

B1: biscFv(C207) (other)
chain: DFVMSQSPSSLAVSVGERVTMSCKSSQSLLYFSNRKNYLAWYQQKPGQSPKLLINWASTRESGVPDRFTGSGSRTDFTLTISSVKAEDLAVYFCQQFYSYPPTFGGGTKLEIKGGGGSGGGGSGGGGSQVQLQQSEAELARPGASVKMSCKASGYTFTDYTIHWLRQKPGQGLDWIGYFNPSSGSTEYNRKFKDRTILTADRSSTTVYMQLSSLTSEDSAVYYCARKGEKLLGNRYWYFDVWGAGTSVTVSSGGGGSGGGGSGGGGSDFVMSQSPSSLAVSVGERVTMSCKSSQSLLYFSNRKNYLAWYQQKPGQSPKLLINWASTRESGVPDRFTGSGSRTDFTLTISSVKAEDLAVYFCQQFYSYPPTFGGGTKLEIKGGGGSGGGGSGGGGSQVQLQQSEAELARPGASVKMSCKASGYTFTDYTIHWLRQKPGQGLDWIGYFNPSSGSTEYNRKFKDRTILTADRSSTTVYMQLSSLTSEDSAVYYCARKGEKLLGNRYWYFDVWGAGTSVTVSS
B2: Db(C207) (other)
chain: DFVMSQSPSSLAVSVGERVTMSCKSSQSLLYFSNRKNYLAWYQQKPGQSPKLLINWASTRESGVPDRFTGSGSRTDFTLTISSVKAEDLAVYFCQQFYSYPPTFGGGTKLEIKGGGGSQVQLQQSEAELARPGASVKMSCKASGYTFTDYTIHWLRQKPGQGLDWIGYFNPSSGSTEYNRKFKDRTILTADRSSTTVYMQLSSLTSEDSAVYYCARKGEKLLGNRYWYFDVWGAGTSVTVSS
notes: also called diabody of C207; diabody (C207)
B3: scFv(C207) (scFv)
scFv: DFVMSQSPSSLAVSVGERVTMSCKSSQSLLYFSNRKNYLAWYQQKPGQSPKLLINWASTRESGVPDRFTGSGSRTDFTLTISSVKAEDLAVYFCQQFYSYPPTFGGGTKLEIKGGGGSGGGGSGGGGSQVQLQQSEAELARPGASVKMSCKASGYTFTDYTIHWLRQKPGQGLDWIGYFNPSSGSTEYNRKFKDRTILTADRSSTTVYMQLSSLTSEDSAVYYCARKGEKLLGNRYWYFDVWGAGTSVTVSS

What follows are binders tested against monkey CD3 on HSC-F monkey T cells (cynomolgus monkey) (UniProt Q95LI5) (assay: competition with FITC-labeled FN18 tracer (5x10^-9 M) for binding to HSC-F monkey T cells, flow cytometry, 4 C).

Binder | binding
B1 | binds
B2 | binds
B3 | binds

What follows are binders tested against monkey CD3 on HSC-F monkey T cells (cynomolgus monkey) (UniProt Q95LI5) (assay: competition with FN18-FITC on HSC-F cells, flow cytometry).

Binder | binding
B1 | binds
B2 | binds
B3 | binds

Each binder was assayed against monkey CD3 on HSC-F monkey T cells (cynomolgus monkey) (UniProt Q95LI5) (assay: competition with FITC-labeled FN18 on HSC-F cells, flow cytometry (legend of FIG. 13)).

Binder | binding
B1 | binds
B2 | binds
B3 | binds
